# Laboratory results from patent US9220264B2, “Multimeric forms of antimicrobial peptides” (Singapore Health Services Pte Ltd., priority 2008, dated 2015).
# Not every detail of the peptide structures is certain; ends, links or a residue may be inferred. For at least one compound, name, drawing or mass did not settle the structure. Bridge positions count the residues as written; N and C are the ends. Peptide text beside a SMILES is read from it. I, II: the chains in the order shown.
# Assays:
# PA 28753 = assay: Bacterial viability assay (ED50); format: cell-based, Pseudomonas aeruginosa; settings: 10 mM phosphate buffer; 37° C.; 22 h; read-out: ED50 (Effective dose to kill 50% of bacterial cells)
# Protocol: (§1) Cell viability was conducted for two Gram-negative bacteria (Pa 9027 and Pa 27853). The cultures were grown overnight on trypticase soy (TS) agar and a few isolated colonies were inoculated to achieve a turbidity equivalent to 0.5 McFarland standard. The cell concentration was adjusted to 10^6 CFU/ml with 10 mM phosphate buffer and separated into different tubes to get final concentration of 10^5 CFU/ml. The peptides were added to the individual tubes to obtain concentrations of ⅛ MIC, ¼ MIC, ½ MIC, 1 MIC, 2 MIC and 4 MIC. The tubes were incubated at 37° C. for 22 h. Serial dilution was performed and 100 μL of the suspension was aliquot onto Mueller Hinton Agar (MHA) plate. The plates were incubated for 24 h at 37° C. for colony counting. Positive control was performed at Oh and 22h.
# PA 9027 = assay: Bacterial viability assay (ED50); format: cell-based, Pseudomonas aeruginosa; settings: 10 mM phosphate buffer; 37° C.; 22 h; read-out: ED50 (Effective dose to kill 50% of bacterial cells)
# Protocol: as §1
# P. aeruginosa DR4877 = format: cell-based, Pseudomonas aeruginosa; settings: compared with B2088—99; multidrug resistant P. aeruginosa
# P. aeruginosa ATCC 9027 = assay: Mouse model of corneal infection; format: in vivo; settings: 0.5 mg/ml of B2088 in combination with ½ the dose of gatifloxacin, FIG. 14
smiles,measurement,setting,value
"CC(C)[C@H](NC(=O)[C@H](CCCCN)NC(=O)[C@H](CCCNC(=N)N)NC(=O)CNC(=O)[C@@H](N)CCCNC(=N)N)C(=O)N[C@H](C(=O)N[C@@H](CCCNC(=N)N)C(=O)N[C@@H](CCCNC(=N)N)C(=O)NCCCC[C@H](NC(=O)[C@H](CCCNC(=N)N)NC(=O)[C@H](CCCNC(=N)N)NC(=O)[C@@H](NC(=O)[C@@H](NC(=O)[C@H](CCCCN)NC(=O)[C@H](CCCNC(=N)N)NC(=O)CNC(=O)[C@@H](N)CCCNC(=N)N)C(C)C)C(C)C)C(=O)N[C@@H](CCCCN)C(=O)O)C(C)C [V2 dimer, (SEQ ID NO: 44)2KK] (I: H-RGRKVVRRKK-OH / II: H-RGRKVVRR; amide I:9-II:C)",EC50,PA 28753,1100 ± 40 nM
same,EC50,PA 9027,700 ± 20 nM
same,synergism with various antibiotics,P. aeruginosa DR4877,better synergism
same,effect on corneal infection,P. aeruginosa ATCC 9027,complete sterilisation of the infection
